# From the supplement of paper PMC8728848
# This is one part of the list.
# B1: LlpA (Burkholderia cenocepacia) (protein)
# chain: MGSSHHHHHHSSGLVPRGSHKILGSNETLSAGNVVYSDNGQYHLAMQTDGNLVVYGPTGAVWQSQTSGSGGNRAVMQGDGNLVIYRADNTAAWSSKTAHPGAFLAVQDDGNVVIYWPRPAWASNTSDPATQQSAESKYLASGSTMSAGQTVTVAQYMLVFQADGNLVLYKNGGNPIWSTGTQGKGATYAVMQSDGNFVIYAGSTALWSTKTNGANGAQLVLQSDGNLVIYAPTAAWSTKFGLVTAPTSTSTSNNGPGSGICVGVCPPHPLNGNPFSPVGVGTTGLGFPTPGYPGAAF
# Assays:
# Assay in all cases: glycan array binding signal (z-score within array); higher = stronger binding
# Details in all cases: glycan notation: IUPAC condensed, linker removed
# Neu5Ac(a2-3)Gal = target: Neu5Ac(a2-3)Gal
# Procedure, shortened: (§1)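 Glycan array binding is given as a within-array Z-score, which can be read as non-binding when negative. The arrays, 3228 of them, came from the Consortium for Functional Glycomics database and were retained only where the protein sequence was available. Z-scores were averaged across arrays of the same protein sequence at different concentrations or buffers and across linkers.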
# [1] = target: Neu5Ac(a2-3)Gal(b1-3)GalNAc
# Procedure, shortened: as §1
# [2] = target: Neu5Ac(a2-3)Gal(b1-3)GalNAc(b1-3)Gal(a1-4)Gal(b1-4)Glc
# Procedure, shortened: as §1
# [3] = target: Neu5Ac(a2-3)Gal(b1-3)GalNAc(b1-4)Gal(b1-4)Glc
# Procedure, shortened: as §1
# [4] = target: Neu5Ac(a2-3)Gal(b1-3)GalNAc(b1-4)[Neu5Ac(a2-3)]Gal(b1-4)Glc
# Procedure, shortened: as §1
# [5] = target: Neu5Ac(a2-3)Gal(b1-3)GalNAc(b1-4)[Neu5Ac(a2-8)Neu5Ac(a2-3)]Gal(b1-4)Glc
# Procedure, shortened: as §1
# [6] = target: Neu5Ac(a2-3)Gal(b1-3)GalNAc6S
# Procedure, shortened: as §1
# [7] = target: Neu5Ac(a2-3)Gal(b1-3)GlcNAc
# Procedure, shortened: as §1
# [8] = target: Neu5Ac(a2-3)Gal(b1-3)GlcNAc(b1-2)Man
# Procedure, shortened: as §1
# [9] = target: Neu5Ac(a2-3)Gal(b1-3)GlcNAc(b1-2)Man(a1-3)[GlcNAc(b1-4)][Neu5Ac(a2-3)Gal(b1-3)GlcNAc(b1-2)Man(a1-6)]Man(b1-4)GlcNAc(b1-4)GlcNAc
# Procedure, shortened: as §1
# [10] = target: Neu5Ac(a2-3)Gal(b1-3)GlcNAc(b1-2)Man(a1-3)[Neu5Ac(a2-3)Gal(b1-3)GlcNAc(b1-2)Man(a1-6)]Man(b1-4)GlcNAc(b1-4)GlcNAc
# Procedure, shortened: as §1
# [11] = target: Neu5Ac(a2-3)Gal(b1-3)GlcNAc(b1-2)[Neu5Ac(a2-3)Gal(b1-3)GlcNAc(b1-4)]Man(a1-6)[Neu5Ac(a2-3)Gal(b1-3)GlcNAc(b1-2)Man(a1-3)]Man(b1-4)GlcNAc(b1-4)GlcNAc
# Procedure, shortened: as §1
# [12] = target: Neu5Ac(a2-3)Gal(b1-3)GlcNAc(b1-3)Gal(b1-3)GlcNAc
# Procedure, shortened: as §1
# [13] = target: Neu5Ac(a2-3)Gal(b1-3)GlcNAc(b1-3)Gal(b1-4)GlcNAc
# Procedure, shortened: as §1
# [14] = target: Neu5Ac(a2-3)Gal(b1-3)GlcNAc(b1-3)GalNAc
# Procedure, shortened: as §1
# [15] = target: Neu5Ac(a2-3)Gal(b1-3)GlcNAc(b1-6)GalNAc
# Procedure, shortened: as §1
# [16] = target: Neu5Ac(a2-3)Gal(b1-3)GlcNAc6S
# Procedure, shortened: as §1
# [17] = target: Neu5Ac(a2-3)Gal(b1-3)[Fuc(a1-4)]GlcNAc
# Procedure, shortened: as §1
# [18] = target: Neu5Ac(a2-3)Gal(b1-3)[Fuc(a1-4)]GlcNAc(b1-3)Gal(b1-3)[Fuc(a1-4)]GlcNAc
# Procedure, shortened: as §1
# [19] = target: Neu5Ac(a2-3)Gal(b1-3)[Fuc(a1-4)]GlcNAc(b1-3)Gal(b1-4)[Fuc(a1-3)]GlcNAc
# Procedure, shortened: as §1
# [20] = target: Neu5Ac(a2-3)Gal(b1-3)[GlcNAc(b1-6)]GalNAc
# Procedure, shortened: as §1
# [21] = target: Neu5Ac(a2-3)Gal(b1-3)[Neu5Ac(a2-6)]GalNAc
# Procedure, shortened: as §1
# [22] = target: Neu5Ac(a2-3)Gal(b1-3)[Neu5Ac(a2-6)]GlcNAc(b1-3)[Fuc(a1-3)[Gal(b1-4)]GlcNAc(b1-6)]Gal(b1-4)Glc
# Procedure, shortened: as §1
# [23] = target: Neu5Ac(a2-3)Gal(b1-3)]Neu5Ac(a2-3)Gal(b1-4)]GlcNAc
# Procedure, shortened: as §1
# Neu5Ac(a2-3)Gal(b1-4)Glc = target: Neu5Ac(a2-3)Gal(b1-4)Glc
# Procedure, shortened: as §1
# [24] = target: Neu5Ac(a2-3)Gal(b1-4)GlcNAc
# Procedure, shortened: as §1
# [25] = target: Neu5Ac(a2-3)Gal(b1-4)GlcNAc(b1-2)Man
# Procedure, shortened: as §1
# [26] = target: Neu5Ac(a2-3)Gal(b1-4)GlcNAc(b1-2)Man(a1-3)[GlcNAc(b1-4)][Neu5Ac(a2-3)Gal(b1-4)GlcNAc(b1-2)Man(a1-6)]Man(b1-4)GlcNAc(b1-4)GlcNAc
# Procedure, shortened: as §1
# [27] = target: Neu5Ac(a2-3)Gal(b1-4)GlcNAc(b1-2)Man(a1-3)[Neu5Ac(a2-3)Gal(b1-4)GlcNAc(b1-2)Man(a1-6)]Man(b1-4)GlcNAc(b1-4)GlcNAc
# Procedure, shortened: as §1
# [28] = target: Neu5Ac(a2-3)Gal(b1-4)GlcNAc(b1-2)Man(a1-3)[Neu5Ac(a2-3)Gal(b1-4)GlcNAc(b1-2)Man(a1-6)]Man(b1-4)GlcNAc(b1-4)[Fuc(a1-6)]GlcNAc
# Procedure, shortened: as §1
# [29] = target: Neu5Ac(a2-3)Gal(b1-4)GlcNAc(b1-2)Man(a1-3)[Neu5Ac(a2-6)Gal(b1-4)GlcNAc(b1-2)Man(a1-6)]Man(b1-4)GlcNAc(b1-4)GlcNAc
# Procedure, shortened: as §1
# [30] = target: Neu5Ac(a2-3)Gal(b1-4)GlcNAc(b1-2)[Neu5Ac(a2-3)Gal(b1-4)GlcNAc(b1-4)]Man(a1-3)[GlcNAc(b1-4)][Neu5Ac(a2-3)Gal(b1-4)GlcNAc(b1-2)[Neu5Ac(a2-3)Gal(b1-4)GlcNAc(b1-6)]Man(a1-6)]Man(b1-4)GlcNAc(b1-4)GlcNAc
# Procedure, shortened: as §1
# [31] = target: Neu5Ac(a2-3)Gal(b1-4)GlcNAc(b1-2)[Neu5Ac(a2-3)Gal(b1-4)GlcNAc(b1-4)]Man(a1-3)[GlcNAc(b1-4)][Neu5Ac(a2-3)Gal(b1-4)GlcNAc(b1-4)Man(a1-6)]Man(b1-4)GlcNAc(b1-4)GlcNAc
# Procedure, shortened: as §1
# [32] = target: Neu5Ac(a2-3)Gal(b1-4)GlcNAc(b1-2)[Neu5Ac(a2-3)Gal(b1-4)GlcNAc(b1-6)]Man(a1-6)[Neu5Ac(a2-3)Gal(b1-4)GlcNAc(b1-2)Man(a1-3)][GlcNAc(b1-4)]Man(b1-4)GlcNAc(b1-4)GlcNAc
# Procedure, shortened: as §1
# [33] = target: Neu5Ac(a2-3)Gal(b1-4)GlcNAc(b1-3)Gal
# Procedure, shortened: as §1
# [34] = target: Neu5Ac(a2-3)Gal(b1-4)GlcNAc(b1-3)Gal(b1-3)GlcNAc
# Procedure, shortened: as §1
# [35] = target: Neu5Ac(a2-3)Gal(b1-4)GlcNAc(b1-3)Gal(b1-4)GlcNAc
# Procedure, shortened: as §1
binder,measurement,setting,value
B1,glycan array binding signal (z-score),Neu5Ac(a2-3)Gal,0.735
same,glycan array binding signal (z-score),[1],0.105
same,glycan array binding signal (z-score),[2],0.88
same,glycan array binding signal (z-score),[3],0.063
same,glycan array binding signal (z-score),[4],-0.265
same,glycan array binding signal (z-score),[5],-1.72
same,glycan array binding signal (z-score),[6],-0.591
same,glycan array binding signal (z-score),[7],0.496
same,glycan array binding signal (z-score),[8],-0.745
same,glycan array binding signal (z-score),[9],-0.74
same,glycan array binding signal (z-score),[10],-1.03
same,glycan array binding signal (z-score),[11],0.118
same,glycan array binding signal (z-score),[12],0.36
same,glycan array binding signal (z-score),[13],-0.712
same,glycan array binding signal (z-score),[14],-0.238
same,glycan array binding signal (z-score),[15],0.06
same,glycan array binding signal (z-score),[16],0.24
same,glycan array binding signal (z-score),[17],-0.357
same,glycan array binding signal (z-score),[18],-0.66
same,glycan array binding signal (z-score),[19],0.851
same,glycan array binding signal (z-score),[20],0.313
same,glycan array binding signal (z-score),[21],-1.08
same,glycan array binding signal (z-score),[22],1.54
same,glycan array binding signal (z-score),[23],-0.161
same,glycan array binding signal (z-score),Neu5Ac(a2-3)Gal(b1-4)Glc,0.087
same,glycan array binding signal (z-score),[24],0.352
same,glycan array binding signal (z-score),[25],1.61
same,glycan array binding signal (z-score),[26],0.385
same,glycan array binding signal (z-score),[27],-0.726
same,glycan array binding signal (z-score),[28],0.547
same,glycan array binding signal (z-score),[29],0.547
same,glycan array binding signal (z-score),[30],-0.347
same,glycan array binding signal (z-score),[31],-0.194
same,glycan array binding signal (z-score),[32],0.512
same,glycan array binding signal (z-score),[33],0.858
same,glycan array binding signal (z-score),[34],0.055
same,glycan array binding signal (z-score),[35],-0.435

# Reprinted from the entries so far (two entries):
binder,measurement,setting,value
B1,glycan array binding signal (z-score),[34],0.055
same,glycan array binding signal (z-score),[35],-0.435
